Measured values: patent US3972773 (dated 1976)
*: point of attachment. Cbz = O=C(OCc1ccccc1)*; Boc = CC(C)(C)OC(=O)*

Assay: general procedure: solution-phase peptide synthesis; pepsin (enzymatic fragment condensation in citric acid buffer, pH 4.0)

Substance | step yield (coupling step) | also measured
Boc-Ala-Phe-Ileu-Gly-Leu-Met-NH2 | 63.3% | 
pMZ-Ala-Phe-Phe-Gly-OCH3 | 94.9% | 
pMZ-Ala-Phe-Ileu-Gly-Leu-Met-NHDmB | 82.2% | 
pMZ-Ala-Tyr-Phe-Gln-NHNH2 | 57.8% | 
pMZ-Ala-Phe-Phe-Gly-NHNH2 | 61.2% | 
pMZ-Gly-Val-Phe-Phe-OCH3 | 74.3% | 
Cbz-PVFF-OMe |  | step yield (coupling step, run 1): 37.2%; step yield (coupling step, run 2): 51%
pMZ-Ala-Phe-Leu-Met-NH2 | 63.3% | 
pMZ-Ala-Phe-Ileu-Gly-Leu-Met-NH2 | 90% | 
pMZ-Ala-Phe-Ala-Phe-Ileu-Gly-OEt | 63% | 
BOC-Asn-Ala-Phe-Ileu-Gly-Leu-Met-NH2 | 81.0% | 
2HCl.H-Lys-Phe-Phe-Gly-Leu-Met-NH2 |  | step yield (late stage modification step, 2HCl): 78.0%
α, ω-Boc-Lys-Phe-Phe-Gly-Leu-Met-NH2 | 88.2% | 
pMZ-Ala-Phe-Ala-Phe-Leu-Met-NH-DMB | 70% | 
pMZ-Gly-Val-Phe-Phe-Gly-OC2 H5 | 75.0% | 
pMZ-Gln-Ala-Phe-Ileu-Gly-Leu-Met-NH2 | 74.5% | 
BOC-Pro-Val-Phe-Phe-Gly-OC2 H5 | 34.4% | 
α,ω-Boc-Lys-Phe-Ileu-Gly-Leu-Met-NH2 | 94.4% | 
BOC-Gly-Val-Phe-Phe-Gly-OC2 H5 | 45.1% | 
Boc-GVFF-OMe |  | step yield (coupling step, run 1): 71.2%; step yield (coupling step, run 2): 73.3%; step yield (coupling step, run 3): 68%
pMZ-Gln-Phe-Phe-Gly-Leu-Met-NH2 | 77.5% | 
pMZ-Ala-Leu-Phe-Gly-OEt | 54.5% | 
pMZ-Ala-Phe-Phe-Gly-Leu-Met-NH2 | 89.2% | 
Z-Pro-Val-Phe-Phe-Gly-OC2 H5 | 67.2% | 
